These results are taken from PubChem BioAssay AID1347423 (Functional Genomics Laboratory (NCATS/FGL), 2020).

The whole screen tested about 52,000 sequences, of which about 210 (0.4%) were called active.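 The calls were made as follows: active = gene whose silencing raises cell survival under the drug, median off-target-corrected z-score across its silencing RNAs 2 or more; inactive = the rest.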 The list shows a part of the results.

This test is described as follows: Resistance to Poly (ADP-Ribose) Polymerase inhibitor: Gene Identification via Genome-wide siRNA Screen. The following applies: mouse BRCA2 R2336H ES cells, olaparib, CellTiter-Glo viability; active compounds read high. The gist of the method: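 Genome-wide siRNA screen (3 siRNAs/gene, 20 nM) in mouse ES cells carrying hypomorphic BRCA2 R2336H; olaparib 500 nM added 48 h post-transfection, CellTiter-Glo viability 72 h later. Normalized to plate-median negative control; MAD z-scores, gene median, seed-adjusted.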
Turning to GGCUGAGGAAUCAAAAUGUTT against Mdh1, the z-score is inactive: 2.03.

Consider “GGUAAAGCCUUUCAGGAAGTT against 5530601I19Rik”, for which the z-score is inactive: 0.617.

In the case of CCGGGACAAGAAUUUCCUCTT against Xylt2, the z-score was inactive: 0.824.

Regarding “GGAUGUCCAUCAUAUUAAGTT against 4921530G04Rik”, the z-score is inactive: -0.0751.

GGUGAUGAAAUUUAUUGAGTT against Xab1: the z-score was inactive: 0.391.

As to GGUGGAAAAAUAUUCUGCATT against Kcnk2, the z-score is inactive: -0.96.

Regarding GCUACUUGUUGAGACCCAATT against Esr1, the z-score is inactive: -1.09.

Consider “GGAGAAGAAAAAUCUCUCCTT against 1700009P13Rik”, for which the z-score was inactive: 0.593.

In the case of GGAGGAUUGAGCAGUGUCUTT against Otos, the z-score was inactive: 0.208.

For the sequence “GGCGACAAAAAGGCUAAGCTT against 9130227C08Rik”, the z-score is inactive: -0.275.

Turning to GCCUCAGCAAGUGUUAGAUTT against Mtap4, the z-score is inactive: -0.34.

As to GGACGAACCUUUAUACCAGTT against Arhgef15, the z-score is inactive: -1.21.

Turning to “CCUCUGUCUGCUAAUAAGATT against C030046I01Rik”, the z-score is inactive: -0.715.

As to GACAGAGGAAUUUGUCUCCTT against Olfr1120, the z-score was inactive: 0.643.

Take “GGCCAUGUAUGGAGAUUACTT against 1100001G20Rik”: the z-score is inactive: -0.276.

For “GGAUCUGACAAGGUACAAGTT against C730027J19Rik”, the z-score was inactive: 1.8.

Turning to “GGUCGACAGACUCUUGCAUTT against D830007F02Rik”, the z-score is inactive: 1.99.

Turning to GUGUUCACCUGACUUUCCCTT against LOC235779, the z-score is inactive: -1.57.

With GGUUGUAGAAGAUGGCUAUTT against Ppp1ca, the z-score is inactive: -0.286.

As to GGAAGGAAACUACGAAGGUTT against Edn1, the z-score is inactive: -0.352.

Regarding GCAAAGGAUCGCUUGAAAATT against Mrpl40, the z-score is inactive: -0.347.

GGCUGUGCAAGAUGUUCUATT against Gpr27: the z-score was inactive: 1.71.

With GGAGAAUUUGAAGCAACCUTT against Crsp2, the z-score was inactive: -1.93.

Take GGGUAACAGUGCCUUUACUTT against Tnrc11: the z-score is inactive: 1.65.

For GGUACAUGAUUACCAGCCUTT against Sdk2, the z-score was inactive: -0.104.

With GCCCUAUAUGUACCAAGUGTT against Mmp14, the z-score was inactive: 0.788.

CCCUAUACACAAGAUGAACTT against Cd96: the z-score was inactive: 1.47.

For GGGUAGGUCCUUUGUAACCTT against Pcdhb16, the z-score is inactive: 0.505.

For the sequence “GGGAACUCGACAAAGAAAUTT against 4930529M08Rik”, the z-score was inactive: 0.522.

In the case of GCUUAGUGACAUUCAAUCATT against Pde1c, the z-score is inactive: -0.0664.

Consider “CGACAAUGAAUUCAAUGGGTT against 4930570C03Rik”, for which the z-score was inactive: 0.0205.

As to GGACUAUUCACAAAGAAGATT against Dusp11, the z-score was inactive: 0.0931.

Take GGGAGUCCCAAUUGUGUGCTT against Gpr88: the z-score was inactive: -0.537.

Turning to GGACUUCUCUGGGACUUCATT against Syt9, the z-score was inactive: -0.782.

On to “GGAAUCUUUAUCCACAUUCTT against 4631426J05Rik”, for which the z-score was inactive: 0.461.

In the case of GGAAAUAGAAACAACAGGATT against Nos2, the z-score was inactive: -0.212.

Take GGGUCAGUGUGGAGAGUACTT against Col13a1: the z-score was inactive: -0.9.

For the sequence GGAAGAAAACACUUGGUUUTT against Cant1, the z-score is inactive: 1.87.

For “GCCGCACAUGCCUACAGAATT against 2900092E17Rik”, the z-score is inactive: -0.809.

GGUGCAAAUAAACAACAGATT against Zfpl1: the z-score was inactive: 0.308.

Turning to “GGACGAUUACAUCCUUUUUTT against A930018B01Rik”, the z-score was inactive: -0.0195.

Consider GGCCAUGGUACACAAUGGUTT against BC027556, for which the z-score is inactive: -0.105.

GGCAAGUGAGGAAAAGAGGTT against BC010250: the z-score is inactive: -0.0762.

Regarding UAGGCGGGAAGGCAUUUUCTT against Gngt1, the z-score was inactive: -0.0138.

On to CGCCCACCAGAAUAUAUAUTT against Il4i1, for which the z-score was inactive: -1.32.

For GCUUGUUCACCCAGUUAUGTT against MGC78289, the z-score is inactive: 0.265.

As for GGAUUAUGGUACCAAGCGCTT against Umps, the z-score was inactive: 1.95.

GCACAGCUCAACGAAUUGGTT against Otp: the z-score is inactive: -0.00861.

Take “GGCAGAAUCUGCUUUAGUUTT against 2700078K21Rik”: the z-score is inactive: 1.02.

For GCGUGUACAAGGCUAUUCATT against Stk4, the z-score was inactive: -1.68.

GGAGAUGUUGCCAAAAACUTT against Sprr2d: the z-score is inactive: 0.879.

Regarding GGGAAAUUGUGUAGCAGCUTT against Slc25a29, the z-score was inactive: 0.214.

Regarding GGUUAAAGUCCUUCAGUAUTT against Tubb3, the z-score was inactive: -0.338.

GGCAAAGAGCAAAAUUUUATT against Rap2b: the z-score is inactive: 0.937.

As for GGCUUCAUAUUCUUUUCCCTT against Il31ra, the z-score was inactive: 0.657.

Consider CCUUUAGUUUACAGUAAGCTT against H2-M10.1, for which the z-score is inactive: 0.6.

For CCUCCAUCGUAUUUGACAUTT against Slc29a4, the z-score is inactive: 0.352.

In the case of GGGACAAUAACACUGUGUCTT against Slc11a1, the z-score was inactive: -1.23.

For GCUAUUCGAAUUCAUGCAUTT against Xpo1, the z-score is inactive: -1.72.

For GGCAUGUGCUACUUACAUGTT against Ripk1, the z-score was inactive: -0.658.

As for GUCCCACACUGAUAAGAUUTT against Mlr1, the z-score was inactive: 1.96.

GGUAGUGAAAUUCUUAAAGTT against Snx10: the z-score was inactive: 0.485.

With GGAACAGGAAUAACAUGACTT against V1re9, the z-score was inactive: 1.65.

Regarding CGGACAAUGCAGGUUCAUCTT against Negr1, the z-score is inactive: -0.664.

In the case of GGAGACACUUACAUGCACGTT against Antxr1, the z-score is inactive: -0.451.

With “GCUACAUUUACAAUGGAUUTT against 9930021J17Rik”, the z-score was inactive: -0.269.
